In all, about 52,000 sequences went through this assay and about 210 (0.4%) were called active.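 How the source made its calls: active means gene whose silencing raises cell survival under the drug, median off-target-corrected z-score across its silencing RNAs 2 or more; inactive means the rest.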 This is one part of the list.
Assay: Resistance to Poly (ADP-Ribose) Polymerase inhibitor: Gene Identification via Genome-wide siRNA Screen
Conditions: mouse BRCA2 R2336H ES cells, olaparib, CellTiter-Glo viability; active compounds read high
Outline: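 Genome-wide siRNA screen (3 siRNAs/gene, 20 nM) in mouse ES cells carrying hypomorphic BRCA2 R2336H; olaparib 500 nM added 48 h post-transfection, CellTiter-Glo viability 72 h later. Normalized to plate-median negative control; MAD z-scores, gene median, seed-adjusted.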

Sequence | z-score
GGUCUAAAAUUGUGCUAAATT against LOC212390 | inactive: -0.0777
GGAAGUUGUUGGGAACUUCTT against Afmid | inactive: -0.466
GGAAAGCAAAUCAAUGCAATT against Colm | inactive: 1.4
CCCAGGAAGCCUUUGAUCUTT against Gmnn | inactive: -3.02
GCCAAGGACAACUAUUUUGTT against Kcnj9 | inactive: -0.843
CCCUGGAUUGAGGAUCGUUTT against Mrgpra8 | inactive: 1.3
GCCUGUACUUCAGAAACUCTT against 6330407G11Rik | inactive: -0.934
AUGGGAGAAUCAGCAGAACTT against Set | inactive: 1.22
GGCUGCCUAACUGAUAACATT against Inpp4b | inactive: -0.557
GGAAAUCAAGCCCUACAUCTT against Col4a2 | inactive: -0.102
GGAGUUCAUUCUGAAUCAGTT against Etohi2 | inactive: -0.817
GGGCAUCAUCCUGAAAGAGTT against Cenpb | inactive: -0.325
GGUGUGCAUCAAGCGACUGTT against Cacng6 | inactive: 1.29
GCAUGAUUACCAGAACCACTT against Fcgr2b | inactive: -0.776
GGAGUCUUACAUAGGAAAATT against Cckbr | inactive: 0.166
GGCCAAACAUAAUUUUGAGTT against Cwf19l2 | inactive: -0.822
GGCAUCCUGAAAAACAAAGTT against Celsr1 | inactive: 0.144
GGCAGAAGGGUAUAACUGUTT against C530046L02Rik | inactive: 0.231
CCAUGUAUGCCUCAACAUATT against Ltf | inactive: -0.205
GCAGCAUCUACAUGCCGCUTT against Phf16 | inactive: 0.61
GAGAAGUCAAAACUGUCAUTT against Ear1 | inactive: 0.756
GGAUCCACUGCUUUCAAGUTT against Dibd1 | inactive: 0.683
GGUAGAGCAUCAGUAUCUATT against Tex16 | inactive: -0.279
UGUGGACAAGGACUACUAATT against Ldoc1 | inactive: -0.996
GGAGAAGGUCGAAAAGCCUTT against Rybp | inactive: -1.06
GCUUGAUUGUCAGUUGGAATT against Tcp11 | inactive: -0.666

Sequence | z-score
GCUUAUUGAACUAUUGUUGTT against Trpc4 | inactive: 1.27
GUGACAAUGAAAAAUGUGUTT against 1810046I24Rik | inactive: -0.177
GCAAGUGUAGAUAAAGUAUTT against Msi2h | inactive: 0.586
GGUUUGAUCUCAUUUUCCUTT against Mcm4 | inactive: -2.16
GCAAGCUAUGGUACGCAGATT against Dapk2 | inactive: 2.68
GCAUUUUGCCCAAUCAAGATT against BC027072 | inactive: 0.74
GCUUUUGGACUGAAUCUCATT against 2210016L21Rik | inactive: 1.16
GGAGCAGAGGCCAUGAGAATT against Pik3r4 | inactive: -0.515
GGACAUAGACUUAAGUAGUTT against Casp8ap2 | inactive: -0.431
UGAGGAGACUAUUUAUUAGTT against Olfr1318 | inactive: -0.0683
GGUAGAAUGUGUGAUACCCTT against Lzf | inactive: 0.657
GGAUCCAACAAAUGUUAUUTT against D5Bwg0834e | inactive: 0.921
GGUCAAUGACAUCGUCAGUTT against D430039N05Rik | inactive: 0.611
GGCUCGGCUUUUGACACAUTT against Ormdl2 | inactive: -0.749
GCUUACGUUUCAUUCUCCCTT against 6720463M24Rik | inactive: 1.66
GGUGUUUGCCCUUCCGUGATT against Gpr30 | inactive: -0.963
CCGUUAAGUAGCUGGAAGATT against 4930522D07Rik | inactive: 0.187
GCAGGACAAGGACAACACUTT against Dyrk2 | inactive: 2.56
CCAUUUAAUCUGGCAGAGCTT against Kif11 | inactive: -0.191
GGUAGUGGCUUGAACAGGUTT against V1ri4 | inactive: 0.933
GGCCAUGCUACAAGUUCAATT against Trem1 | inactive: 0.145
GGGUUUUGGAGACAGUAUUTT against 2700081O15Rik | inactive: -1.04
GGAGGAACAGCUCAGAUGUTT against Olfr524 | inactive: 0.557
GCGAACUCGGGAAACAACUTT against Rnf4 | inactive: -1.48
CGACUGGGACAUUAAAACCTT against 1810008O21Rik | inactive: 1.21
CCGGAUUAAUGAUGCAAUGTT against 2310005O14Rik | inactive: 0.755

Look-ups from above.
Value for GCCUGUACUUCAGAAACUCTT against 6330407G11Rik under z-score: inactive: -0.934
Value for GGAGUCUUACAUAGGAAAATT against Cckbr under z-score: inactive: 0.166

From PubChem BioAssay AID1347423 (Functional Genomics Laboratory (NCATS/FGL), 2020)
